In doi:10.1101/2020.09.12.294645:
No constants are given. Whether binding was seen depends on the method and setting. In cells and extracts the contact can be indirect. Some results given as binding are weak or reduced against the parent protein; the word gives no strength.

Sequences of proteins named here, by UniProt entry; tags and fusion partners are left off.
UniProt Q6ZRS2: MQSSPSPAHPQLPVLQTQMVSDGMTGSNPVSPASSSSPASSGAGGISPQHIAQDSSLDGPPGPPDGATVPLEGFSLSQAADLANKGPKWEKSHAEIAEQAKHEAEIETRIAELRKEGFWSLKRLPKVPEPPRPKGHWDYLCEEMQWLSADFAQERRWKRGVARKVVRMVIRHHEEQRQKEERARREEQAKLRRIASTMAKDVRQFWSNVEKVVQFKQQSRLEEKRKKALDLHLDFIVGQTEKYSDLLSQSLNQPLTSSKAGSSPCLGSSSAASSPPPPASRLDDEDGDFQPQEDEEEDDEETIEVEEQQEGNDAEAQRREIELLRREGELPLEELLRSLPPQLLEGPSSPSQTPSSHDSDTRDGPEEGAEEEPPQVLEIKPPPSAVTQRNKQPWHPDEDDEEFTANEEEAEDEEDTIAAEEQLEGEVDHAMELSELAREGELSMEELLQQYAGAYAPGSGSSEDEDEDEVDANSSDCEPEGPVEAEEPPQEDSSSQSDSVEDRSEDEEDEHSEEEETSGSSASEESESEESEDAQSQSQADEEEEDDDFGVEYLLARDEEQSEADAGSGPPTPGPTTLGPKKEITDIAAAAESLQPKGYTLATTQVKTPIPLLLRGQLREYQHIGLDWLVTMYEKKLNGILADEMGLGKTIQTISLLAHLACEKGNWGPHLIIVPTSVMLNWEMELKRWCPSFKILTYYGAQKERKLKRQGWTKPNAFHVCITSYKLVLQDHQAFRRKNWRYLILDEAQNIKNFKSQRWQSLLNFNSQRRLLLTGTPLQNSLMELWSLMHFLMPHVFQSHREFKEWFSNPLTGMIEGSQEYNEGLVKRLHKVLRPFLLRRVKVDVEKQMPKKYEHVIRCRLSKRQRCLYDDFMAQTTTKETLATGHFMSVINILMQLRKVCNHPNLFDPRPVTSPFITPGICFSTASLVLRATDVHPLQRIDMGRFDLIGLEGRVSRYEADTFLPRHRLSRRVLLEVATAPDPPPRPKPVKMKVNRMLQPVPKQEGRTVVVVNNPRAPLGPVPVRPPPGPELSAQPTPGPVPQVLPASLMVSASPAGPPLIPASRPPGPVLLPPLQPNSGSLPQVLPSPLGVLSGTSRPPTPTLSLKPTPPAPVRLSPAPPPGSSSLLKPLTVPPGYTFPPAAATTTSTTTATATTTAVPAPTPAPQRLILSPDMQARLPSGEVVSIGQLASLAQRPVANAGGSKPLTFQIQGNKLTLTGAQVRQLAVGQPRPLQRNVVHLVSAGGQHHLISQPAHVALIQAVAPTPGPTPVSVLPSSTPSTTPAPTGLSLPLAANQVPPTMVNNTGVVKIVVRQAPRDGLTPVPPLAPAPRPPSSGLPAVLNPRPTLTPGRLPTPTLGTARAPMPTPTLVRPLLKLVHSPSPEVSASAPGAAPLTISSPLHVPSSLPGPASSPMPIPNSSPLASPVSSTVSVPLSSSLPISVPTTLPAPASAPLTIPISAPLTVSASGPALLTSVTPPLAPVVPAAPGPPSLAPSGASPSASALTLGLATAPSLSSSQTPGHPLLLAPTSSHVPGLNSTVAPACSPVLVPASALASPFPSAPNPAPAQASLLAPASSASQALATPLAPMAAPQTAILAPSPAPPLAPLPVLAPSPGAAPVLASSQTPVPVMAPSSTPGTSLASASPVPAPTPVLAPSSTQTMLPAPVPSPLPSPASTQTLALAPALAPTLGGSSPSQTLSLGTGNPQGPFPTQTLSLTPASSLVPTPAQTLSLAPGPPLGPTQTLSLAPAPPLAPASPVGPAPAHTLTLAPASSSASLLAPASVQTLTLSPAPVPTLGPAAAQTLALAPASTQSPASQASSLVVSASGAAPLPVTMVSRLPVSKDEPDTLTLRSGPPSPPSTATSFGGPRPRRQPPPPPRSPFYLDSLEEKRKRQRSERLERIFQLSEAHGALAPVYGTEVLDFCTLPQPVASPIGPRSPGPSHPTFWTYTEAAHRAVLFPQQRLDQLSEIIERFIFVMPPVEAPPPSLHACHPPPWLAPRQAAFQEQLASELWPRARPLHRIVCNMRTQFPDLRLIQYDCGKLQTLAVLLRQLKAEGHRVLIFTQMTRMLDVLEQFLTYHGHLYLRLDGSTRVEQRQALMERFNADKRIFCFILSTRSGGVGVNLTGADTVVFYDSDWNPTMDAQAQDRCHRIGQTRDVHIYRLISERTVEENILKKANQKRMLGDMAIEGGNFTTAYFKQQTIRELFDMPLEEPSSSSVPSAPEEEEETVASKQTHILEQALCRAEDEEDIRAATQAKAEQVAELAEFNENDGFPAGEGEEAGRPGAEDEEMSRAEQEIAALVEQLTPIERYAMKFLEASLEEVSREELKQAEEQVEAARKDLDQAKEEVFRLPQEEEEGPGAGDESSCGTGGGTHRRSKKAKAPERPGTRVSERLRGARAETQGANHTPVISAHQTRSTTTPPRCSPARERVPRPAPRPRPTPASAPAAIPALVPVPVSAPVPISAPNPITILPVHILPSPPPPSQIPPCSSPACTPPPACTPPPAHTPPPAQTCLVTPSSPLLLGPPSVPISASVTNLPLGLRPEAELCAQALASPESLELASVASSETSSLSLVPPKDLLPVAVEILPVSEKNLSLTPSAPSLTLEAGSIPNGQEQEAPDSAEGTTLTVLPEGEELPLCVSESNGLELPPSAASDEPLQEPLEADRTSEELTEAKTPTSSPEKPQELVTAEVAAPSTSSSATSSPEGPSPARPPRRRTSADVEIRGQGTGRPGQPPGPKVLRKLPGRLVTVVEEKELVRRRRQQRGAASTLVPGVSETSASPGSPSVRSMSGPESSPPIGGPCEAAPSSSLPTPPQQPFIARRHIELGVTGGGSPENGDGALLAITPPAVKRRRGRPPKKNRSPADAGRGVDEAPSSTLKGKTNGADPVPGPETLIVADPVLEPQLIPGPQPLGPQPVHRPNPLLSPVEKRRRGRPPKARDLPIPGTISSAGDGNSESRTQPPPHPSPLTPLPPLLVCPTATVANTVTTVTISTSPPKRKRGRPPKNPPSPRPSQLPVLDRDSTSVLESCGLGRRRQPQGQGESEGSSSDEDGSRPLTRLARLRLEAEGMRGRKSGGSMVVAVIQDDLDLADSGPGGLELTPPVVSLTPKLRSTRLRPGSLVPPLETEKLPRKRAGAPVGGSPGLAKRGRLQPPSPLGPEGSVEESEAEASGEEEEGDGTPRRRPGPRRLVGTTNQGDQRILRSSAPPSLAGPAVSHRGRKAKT
UniProt Q8WUM4: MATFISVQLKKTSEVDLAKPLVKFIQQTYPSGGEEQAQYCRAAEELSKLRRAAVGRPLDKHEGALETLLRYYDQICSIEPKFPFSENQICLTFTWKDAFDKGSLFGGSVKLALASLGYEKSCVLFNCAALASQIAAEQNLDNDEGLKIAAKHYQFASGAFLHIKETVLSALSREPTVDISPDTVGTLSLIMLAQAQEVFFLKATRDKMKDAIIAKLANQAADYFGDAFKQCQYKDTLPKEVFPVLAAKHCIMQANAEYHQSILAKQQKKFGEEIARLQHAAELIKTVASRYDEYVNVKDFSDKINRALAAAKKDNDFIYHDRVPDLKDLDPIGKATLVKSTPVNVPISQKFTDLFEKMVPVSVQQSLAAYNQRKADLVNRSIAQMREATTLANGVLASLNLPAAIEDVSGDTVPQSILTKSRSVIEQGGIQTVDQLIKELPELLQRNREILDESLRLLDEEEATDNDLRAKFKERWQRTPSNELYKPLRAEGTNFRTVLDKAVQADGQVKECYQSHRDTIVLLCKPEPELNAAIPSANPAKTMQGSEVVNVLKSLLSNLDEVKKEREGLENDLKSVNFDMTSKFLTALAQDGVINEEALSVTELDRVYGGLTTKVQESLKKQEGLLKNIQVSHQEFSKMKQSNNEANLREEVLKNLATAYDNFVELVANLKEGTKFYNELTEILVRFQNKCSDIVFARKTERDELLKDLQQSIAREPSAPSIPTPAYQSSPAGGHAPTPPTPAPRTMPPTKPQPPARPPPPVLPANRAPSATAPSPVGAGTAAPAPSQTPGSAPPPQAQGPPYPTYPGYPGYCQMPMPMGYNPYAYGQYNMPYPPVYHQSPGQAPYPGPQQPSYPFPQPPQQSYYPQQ
UniProt Q96GD4: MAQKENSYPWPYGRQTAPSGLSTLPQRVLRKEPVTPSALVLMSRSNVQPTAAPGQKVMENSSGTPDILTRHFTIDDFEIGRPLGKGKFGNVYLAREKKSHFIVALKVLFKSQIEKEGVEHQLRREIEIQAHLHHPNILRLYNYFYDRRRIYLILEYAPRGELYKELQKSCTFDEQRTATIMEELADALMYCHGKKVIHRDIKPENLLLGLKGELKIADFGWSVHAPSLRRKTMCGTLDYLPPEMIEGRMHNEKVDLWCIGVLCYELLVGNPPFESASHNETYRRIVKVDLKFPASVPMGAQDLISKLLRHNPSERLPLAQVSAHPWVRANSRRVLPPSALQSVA
UniProt O14578: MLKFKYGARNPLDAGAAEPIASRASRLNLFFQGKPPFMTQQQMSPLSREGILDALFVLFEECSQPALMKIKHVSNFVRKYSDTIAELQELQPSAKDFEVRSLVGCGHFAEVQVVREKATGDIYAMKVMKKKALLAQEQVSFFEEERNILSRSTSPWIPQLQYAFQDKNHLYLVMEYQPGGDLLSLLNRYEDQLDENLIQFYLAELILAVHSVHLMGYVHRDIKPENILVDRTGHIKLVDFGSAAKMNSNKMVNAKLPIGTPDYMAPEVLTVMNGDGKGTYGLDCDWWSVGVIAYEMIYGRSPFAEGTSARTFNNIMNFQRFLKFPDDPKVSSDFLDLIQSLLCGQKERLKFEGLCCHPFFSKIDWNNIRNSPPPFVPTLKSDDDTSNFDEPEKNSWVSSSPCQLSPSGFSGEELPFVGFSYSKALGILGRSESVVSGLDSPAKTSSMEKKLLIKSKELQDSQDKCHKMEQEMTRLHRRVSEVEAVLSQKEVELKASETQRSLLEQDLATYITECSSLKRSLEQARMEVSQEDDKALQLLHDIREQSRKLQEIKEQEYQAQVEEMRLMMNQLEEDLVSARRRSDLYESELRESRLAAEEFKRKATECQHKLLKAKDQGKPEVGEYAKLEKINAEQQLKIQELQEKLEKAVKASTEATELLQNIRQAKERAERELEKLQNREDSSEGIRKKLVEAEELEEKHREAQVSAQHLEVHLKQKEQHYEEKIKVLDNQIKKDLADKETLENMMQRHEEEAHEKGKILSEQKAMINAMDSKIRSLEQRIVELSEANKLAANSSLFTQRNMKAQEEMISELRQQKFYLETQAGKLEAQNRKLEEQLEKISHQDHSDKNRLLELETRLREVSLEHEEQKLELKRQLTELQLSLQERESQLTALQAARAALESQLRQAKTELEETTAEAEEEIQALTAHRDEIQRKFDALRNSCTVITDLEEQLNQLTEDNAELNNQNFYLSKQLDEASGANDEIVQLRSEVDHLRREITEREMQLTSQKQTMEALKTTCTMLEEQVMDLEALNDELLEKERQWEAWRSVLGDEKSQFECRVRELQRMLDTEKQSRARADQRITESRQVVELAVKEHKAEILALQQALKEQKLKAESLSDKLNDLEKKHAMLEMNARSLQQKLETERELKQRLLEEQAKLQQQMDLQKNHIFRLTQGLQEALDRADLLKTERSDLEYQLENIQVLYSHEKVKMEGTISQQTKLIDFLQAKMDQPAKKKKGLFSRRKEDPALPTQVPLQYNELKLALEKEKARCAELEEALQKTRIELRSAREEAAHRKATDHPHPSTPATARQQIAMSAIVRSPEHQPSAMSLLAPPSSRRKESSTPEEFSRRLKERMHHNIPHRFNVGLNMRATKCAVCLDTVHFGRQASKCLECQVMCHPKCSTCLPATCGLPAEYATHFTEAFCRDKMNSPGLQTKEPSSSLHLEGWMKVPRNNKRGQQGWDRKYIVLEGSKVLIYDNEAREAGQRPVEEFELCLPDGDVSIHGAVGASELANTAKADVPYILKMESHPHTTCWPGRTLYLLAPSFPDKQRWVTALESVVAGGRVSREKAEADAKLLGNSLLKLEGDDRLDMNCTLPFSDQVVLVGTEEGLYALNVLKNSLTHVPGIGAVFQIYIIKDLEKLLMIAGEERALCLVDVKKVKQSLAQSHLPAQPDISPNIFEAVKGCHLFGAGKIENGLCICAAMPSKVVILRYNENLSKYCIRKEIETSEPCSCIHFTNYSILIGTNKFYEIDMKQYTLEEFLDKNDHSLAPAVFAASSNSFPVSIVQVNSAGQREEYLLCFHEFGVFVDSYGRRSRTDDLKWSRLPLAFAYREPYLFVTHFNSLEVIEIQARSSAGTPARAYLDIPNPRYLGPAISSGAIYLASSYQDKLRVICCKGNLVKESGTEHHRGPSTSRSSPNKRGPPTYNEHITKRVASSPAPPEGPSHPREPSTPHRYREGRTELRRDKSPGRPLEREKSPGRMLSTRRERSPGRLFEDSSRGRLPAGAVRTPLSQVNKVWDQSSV

B1: CEP55 (protein, UniProt Q53EZ4 1-464)
chain: MSSRSTKDLIKSKWGSKPSNSKSETTLEKLKGEIAHLKTSVDEITSGKGKLTDKERHRLLEKIRVLEAEKEKNAYQLTEKDKEIQRLRDQLKARYSTTTLLEQLEETTREGERREQVLKALSEEKDVLKQQLSAATSRIAELESKTNTLRLSQTVAPNCFNSSINNIHEMEIQLKDALEKNQQWLVYDQQREVYVKGLLAKIFELEKKTETAAHSLPQQTKKPESEGYLQEEKQKCYNDLLASAKKDLEVERQTITQLSFELSEFRRKYEETQKEVHNLNQLLYSQRRADVQHLEDDRHKTEKIQKLREENDIARGKLEEEKKRSEELLSQVQFLYTSLLKQQEEQTRVALLEQQMQACTLDFENEKLDRQHVQHQLHVILKELRKARNQITQLESLKQLHEFAITEPLVTFQGETENREKVAASPKSPTAALNESLVECPKCNIQYPATEHRDLLVHVEYCSK
B2: Anillin (protein, UniProt Q9NQW6 1-1124)
chain: MDPFTEKLLERTRARRENLQRKMAERPTAAPRSMTHAKRARQPLSEASNQQPLSGGEEKSCTKPSPSKKRCSDNTEVEVSNLENKQPVESTSAKSCSPSPVSPQVQPQAADTISDSVAVPASLLGMRRGLNSRLEATAASSVKTRMQKLAEQRRRWDNDDMTDDIPESSLFSPMPSEEKAASPPRPLLSNASATPVGRRGRLANLAATICSWEDDVNHSFAKQNSVQEQPGTACLSKFSSASGASARINSSSVKQEATFCSQRDGDASLNKALSSSADDASLVNASISSSVKATSPVKSTTSITDAKSCEGQNPELLPKTPISPLKTGVSKPIVKSTLSQTVPSKGELSREICLQSQSKDKSTTPGGTGIKPFLERFGERCQEHSKESPARSTPHRTPIITPNTKAIQERLFKQDTSSSTTHLAQQLKQERQKELACLRGRFDKGNIWSAEKGGNSKSKQLETKQETHCQSTPLKKHQGVSKTQSLPVTEKVTENQIPAKNSSTEPKGFTECEMTKSSPLKITLFLEEDKSLKVTSDPKVEQKIEVIREIEMSVDDDDINSSKVINDLFSDVLEEGELDMEKSQEEMDQALAESSEEQEDALNISSMSLLAPLAQTVGVVSPESLVSTPRLELKDTSRSDESPKPGKFQRTRVPRAESGDSLGSEDRDLLYSIDAYRSQRFKETERPSIKQVIVRKEDVTSKLDEKNNAFPCQVNIKQKMQELNNEINMQQTVIYQASQALNCCVDEEHGKGSLEEAEAERLLLIATGKRTLLIDELNKLKNEGPQRKNKASPQSEFMPSKGSVTLSEIRLPLKADFVCSTVQKPDAANYYYLIILKAGAENMVATPLASTSNSLNGDALTFTTTFTLQDVSNDFEINIEVYSLVQKKDPSGLDKKKKTSKSKAITPKRLLTSITTKSNIHSSVMASPGGLSAVRTSNFALVGSYTLSLSSVGNTKFVLDKVPFLSSLEGHIYLKIKCQVNSSVEERGFLTIFEDVSGFGAWHRRWCVLSGNCISYWTYPDDEKRKNPIGRINLANCTSRQIEPANREFCARRNTFELITVRPQREDDRETLVSQCRDTLCVTKNWLSADTKEERDLWMQKLNQVLVDIRLWQPDACYKPIGKP
B3: Spastin (enzyme, UniProt Q9UBP0 1-616)
chain: MNSPGGRGKKKGSGGASNPVPPRPPPPCLAPAPPAAGPAPPPESPHKRNLYYFSYPLFVGFALLRLVAFHLGLLFVWLCQRFSRALMAAKRSSGAAPAPASASAPAPVPGGEAERVRVFHKQAFEYISIALRIDEDEKAGQKEQAVEWYKKGIEELEKGIAVIVTGQGEQCERARRLQAKMMTNLVMAKDRLQLLEKMQPVLPFSKSQTDVYNDSTNLACRNGHLQSESGAVPKRKDPLTHTSNSLPRSKTVMKTGSAGLSGHHRAPSYSGLSMVSGVKQGSGPAPTTHKGTPKTNRTNKPSTPTTATRKKKDLKNFRNVDSNLANLIMNEIVDNGTAVKFDDIAGQDLAKQALQEIVILPSLRPELFTGLRAPARGLLLFGPPGNGKTMLAKAVAAESNATFFNISAASLTSKYVGEGEKLVRALFAVARELQPSIIFIDEVDSLLCERREGEHDASRRLKTEFLIEFDGVQSAGDDRVLVMGATNRPQELDEAVLRRFIKRVYVSLPNEETRLLLLKNLLCKQGSPLTQKELAQLARMTDGYSGSDLTALAKDAALGPIRELKPEQVKNMSASEMRNIRLSDFTESLKKIKRSVSPQTLEAYIRWNKDFGDTTV

Target: SNF2-Related CBP Activator Protein (ATPase SRCAP) (human (endogenous in HeLa)) (UniProt Q6ZRS2)
Assay: co-IP

binding, binds:
Alix (from UniProt Q8WUM4 1-868), Aurora B (from UniProt Q96GD4 1-344) (enzyme), CIT-K (from UniProt O14578 1-2027), MKLP2 (from UniProt O95235 1-890), PLK1 (from UniProt P53350 1-603) (enzyme), B1, B2, B3
